# Publication PMC7862700
# Protein sequences, listed by entry. Tags and fused reporters are not part of them. Lines headed by an entry give the natural chain unless they say otherwise; changes in a name come on top.
# UniProt Q00613: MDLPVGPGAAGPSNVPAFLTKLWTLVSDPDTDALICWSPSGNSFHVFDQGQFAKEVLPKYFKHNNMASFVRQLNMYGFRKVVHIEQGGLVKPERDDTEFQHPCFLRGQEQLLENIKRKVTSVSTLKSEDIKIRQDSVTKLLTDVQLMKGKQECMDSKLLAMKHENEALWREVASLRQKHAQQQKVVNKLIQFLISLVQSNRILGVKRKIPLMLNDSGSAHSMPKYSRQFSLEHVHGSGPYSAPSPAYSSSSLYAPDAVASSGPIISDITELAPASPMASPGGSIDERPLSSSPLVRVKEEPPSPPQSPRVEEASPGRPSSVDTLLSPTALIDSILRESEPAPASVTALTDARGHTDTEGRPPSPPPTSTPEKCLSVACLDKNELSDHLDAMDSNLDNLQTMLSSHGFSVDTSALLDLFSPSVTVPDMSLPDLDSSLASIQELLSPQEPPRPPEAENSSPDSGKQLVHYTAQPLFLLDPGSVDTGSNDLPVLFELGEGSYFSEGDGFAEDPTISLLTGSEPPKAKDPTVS
# The list shows a part of the results, in another mix than the full data. For some of these results: At the low end of the ranking the order means little. This is one part of the list. For some of these results: The source does not settle which construct or isoform was used.
# Legend:
# HSF1 = HSF1 (UniProt Q00613); assay: DAPPL (digital affinity profiling via proximity ligation, sequencing); settings: 10 mM Tris-HCl pH 7.5, 50 mM NaCl, 1 mM DTT, 4% glycerol, room temperature, 30 min; GST-TFs on glutathione beads, 16-mer random dsDNA library, 0.1% …; high values mean tight binding; double strand, one strand shown; scale: fold enrichment (6-mer frequency, TF over GST control)
# ELF2 = target: T1, ELF2 (UniProt Q15723); assay: as above; settings: 10 mM Tris-HCl pH 7.5, 50 mM NaCl, 1 mM DTT, 4% glycerol, room temperature, 30 min; GST-TFs on glutathione beads, 16-mer random dsDNA library, 0.1% …; high values mean tight binding; double strand, one strand shown; scale: fold enrichment (6-mer frequency, TF over GST control)
# T1 sequence: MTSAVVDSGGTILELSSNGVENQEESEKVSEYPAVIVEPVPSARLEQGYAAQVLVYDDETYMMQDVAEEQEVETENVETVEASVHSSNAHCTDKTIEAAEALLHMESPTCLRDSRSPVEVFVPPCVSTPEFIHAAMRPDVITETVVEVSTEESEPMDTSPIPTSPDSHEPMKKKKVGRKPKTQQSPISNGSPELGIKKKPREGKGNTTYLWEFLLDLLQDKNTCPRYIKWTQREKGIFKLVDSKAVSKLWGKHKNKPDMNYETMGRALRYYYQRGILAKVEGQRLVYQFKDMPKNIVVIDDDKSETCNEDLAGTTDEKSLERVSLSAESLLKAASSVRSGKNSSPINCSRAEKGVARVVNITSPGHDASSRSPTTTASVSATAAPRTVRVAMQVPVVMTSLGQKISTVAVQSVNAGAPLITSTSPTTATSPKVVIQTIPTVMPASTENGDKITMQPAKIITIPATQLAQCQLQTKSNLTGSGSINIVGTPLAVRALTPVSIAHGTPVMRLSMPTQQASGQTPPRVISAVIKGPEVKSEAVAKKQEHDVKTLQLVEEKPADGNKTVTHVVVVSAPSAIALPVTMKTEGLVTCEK
Sequence,binding signal (HSF1),binding signal (ELF2)
CGTTAT,0.992,1.09
GTCTAT,0.943,1.01
CGAACA,1.76,1.09
TGCGGT,0.798,0.934
CTGGAA,4.43,1.27
CCACCG,0.829,0.977
GCTGCT,1.13,1.22
GCTAGG,0.994,0.889
ACAAAG,0.947,0.959
ACTATG,1.09,1.14
GATGTC,0.876,1.38
CCATCC,0.97,1.28
GATCCA,1.21,1.02
AGCCCA,0.929,0.948
TCAAAG,1.17,1.03
GGCTAC,0.873,1.13
TACCGG,0.97,2.16
AGGAAC,0.901,1.2
GTATCG,0.857,0.892

Sequence,binding signal (HSF1),binding signal (ELF2)
TGCTAG,1.94,1.01
GAAGCC,0.872,1.16
TGCGGA,0.799,1.84
TAGTTG,0.966,0.954
GACTAC,0.896,1.13
TCATAG,0.93,0.865
AATTGA,1.05,1.17
GGCAGC,0.756,0.925
GTACTG,0.903,1.03
GTGTAA,0.848,0.887
ATCCAT,1.23,1.1
GGATAT,0.924,2.07
AACTGA,0.957,1.08
CGGTTC,0.882,1.51
ATAGCC,0.901,1.03
CATTGC,0.889,1.04
CACACG,0.889,1.09
GTGTCT,0.834,0.955
GAAACG,0.949,1.31

# Looked up above:
# CGGTTC – binding signal (ELF2): 1.51
# GGATAT – binding signal (ELF2): 2.07
